In patent EP4523686A1, “A SIGMA-1 RECEPTOR POSITIVE MODULATOR FOR ITS USE IN THE PREVENTION AND THE TREATMENT OF A PATHOLOGY” (priority 2023, dated 2025):

Key:
[1] = tested on: Male Swiss mice; assay: Open field activity test (anxiolytic effect) and observation of animals; type: in vivo; conditions: IP 30 minutes before the test
Protocol: Drug administration: Route: intraperitoneal (IP), Method: by injection. The drug was administered under a volume calculated according to the individual body weight of each mouse (5 ml/kg), Frequency: once before the behavioral procedure, Treatment length: once, Timing: 30 minutes before behavioral procedure.
Health of animals was checked daily: general aspect of animals, activity, acute or delayed mortality. Weight was monitored the day of experiment.
The day of the test, animals were tested for general locomotor activity in the open field (OF) activity test for 10 min. The open field is made of opaque white plexiglass. The arena is composed of a large square box (50cm × 50cm × 50cm). Animal movements were followed by an overhead camera placed above the apparatus. Each mouse was placed in the center of the arena and allowed to move freely through the arena during its session. The locomotor activity was assessed by counting the total distance traveled measured in centimeters (cm) for the whole session time. The time spent in center area, and the number of defecations were also assessed.

[2] = tested on: wfs1ab^WT zebrafish larvae; assay: Visual motor response in zebrafish larvae (basal mobility of controls); type: in vivo; conditions: at 3 µM in fish water

SMILES | total locomotion in the open field (in words) ([1]; 10 min session) | number of defecation (in words) ([1]; compared to vehicle group) | basal mobility / locomotion in wfs1ab^WT controls (in words) [2]
COc1ccc(C(=O)OC2CC3CCC(C2)N3C)cc1OC (stereo not shown) [Convolamine, (8-methyl-8-azabicyclo[3.2.1]octan-3-yl) 3,4-dimethoxybenzoate] | no particular effect | does not modify | without affecting
CCCN(CCC)CCc1ccc(OC)c(OCCc2ccccc2)c1 [NE-100, reference compound] |  |  | failed to affect
